Results on 4 molecules are retold here after US20230220074A1.

Protein sequences, listed by entry. Tags and fused reporters are not part of them. Lines headed by an entry give the natural chain unless they say otherwise; changes in a name come on top.
UniProt Q9UKJ1: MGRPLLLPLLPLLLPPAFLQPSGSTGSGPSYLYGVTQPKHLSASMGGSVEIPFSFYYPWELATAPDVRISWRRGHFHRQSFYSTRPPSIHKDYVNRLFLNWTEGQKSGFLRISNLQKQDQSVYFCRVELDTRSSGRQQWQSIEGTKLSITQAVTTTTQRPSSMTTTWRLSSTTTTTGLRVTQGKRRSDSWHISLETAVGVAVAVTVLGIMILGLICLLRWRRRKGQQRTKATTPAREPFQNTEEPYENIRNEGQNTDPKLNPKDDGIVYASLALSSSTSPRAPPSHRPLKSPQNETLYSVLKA

Assay [1] has as its target human PILRA (human) (UniProt Q9UKJ1). The experiment in a line: flow cytometry, conditioned medium on 293 cells expressing human PILRA. (In general: A flow cytometer gives signals particle by particle.)
For assay [2] the target is unchanged. The experiment in a line: flow cytometry competition on 293FS hPILRA cells.

No constants are given. Whether binding was seen depends on the method and setting. Some binding calls cover weakened binding; strength is not graded here.

B1: hPA-001 (antibody, V domains shown)
VH: QVTLKESGPGILQPSQTLSLTCSFSGFSLTTFGMGVGWIRQPSGKGLEWLAHIWWDDDKYYNPALKSRLTISKDISKNQVFLKIANVDTADTATYYCARIEDYGNPFDYWGQGTTLTVSS
VL: DIQMNQSPSSLSASLGDTITITCHASQNIHVWLSWYQQKPGNIPKLLIYKASNLHTGVPSRFSGSGSGTGFTLTISSLQPEDIATYYCQQGQSYPLTFGAGTKLELK
In the case of B1, in the assay with human PILRA (human) [1], the binding entry is listed as “binds”.

B2: hPA-005 (antibody, V domains shown)
VH: QVILKESGPGILQSSQTLSLTCSFSGFSLSTFGMGVGWIRQPSGKGLESLAHIWWDDDKFYNPALKSRLTISKDTSKSQVFLKIANVDTADIATYYCTRIEDYGSYFAYWGQGTTLTVSS
VL: DVQMNQSPSSLSASLGDPITITCHASQNIHVWLNWYQQRPGNIPRLLIYKASNLHTGVPSRFSGSGSGTGFTLTISSLQPEDIATYYCQQGQSYPYTFGGGTKLEIK
Consider B2, for which the binding result in the assay with human PILRA (human) [2] and with human PILRA (human) [1] was “binds” each time.

B3: hPA-002 (antibody, V domains shown)
VH: QVTLQESGPGILQPSQTLSLTCSFSGFSLSTFGMGVGWIRQPSGKGLEWLAHIWWDDDKYYNPALKSRLTISKDTSKNQVFLKIASVDTADIATYYCARVEDYGNPFDYWGQGTTLTVSS
VL: DIQMNQSPSSLSASLGDTITITCHASQNIHVWLNWYQQKPGNIPKLLIYKASNLHTGVPSRFSGSGSGTGFTVTISSLQPEDIATYYCQQGQSYPLTFGAGTKLELK
On to B3, for which the binding entry with human PILRA (human) [2] and with human PILRA (human) [1] was “binds” each time.

B4: hPA-004 (antibody, V domains shown)
VH: QVTLKESGPGMLQPSQTLSLACSFSGFSLNSFGVAVGWIRQPSGKGLEWLAHIWWDDDKSYNPALKSRLTISKDTSKNQVFLKLANVDTADTATYYCTRIADYGNHFDYWGQGTALTVSS
VL: DIQMNQSPSSLSASLGDTITITCHASQNSHVWLSWYQQKPGNIPKLLIYKASNLHTGVPSRFSGSGSGTGFTLTISGLQPEDIATYYCQQGQTYPFTFGSGTKLEIK
In the case of B4, the binding result in the assay with human PILRA (human) [2] and in the assay with human PILRA (human) [1] was “binds” each time.
